Consider 11 substances from patent publication US8076285B2 (Aicuris GmbH & Co. KG, priority 2006, dated 2011).

This data set is described as follows: general procedure: Fmoc solid-phase peptide synthesis; 2-chlorotrityl chloride resin (Iris Biotech), 0.85 mmol/g; TBTU/DIEA.
The mark [1] stands for this setting: coupling step, trifluoroacetate.
Setting [2] is: late stage modification step, trifluoroacetate.

On to “[3-tert-Butyl-D-alanyl]-[3-tert-butyl-L-alanyl]-[(3R)-3-amino-L-phenylalanyl]-[(3R)-3-hydroxy-L-leucyl]-L-norvalyl-D-arginyl-L-isoleucyl-L-allothreonyl-glycyl-L-seryl-L-serine C^1.11-N^3.3-lactam”, for which, under “late stage modification step, from compound 446A, trifluoroacetate”, the step yield is 27% of theory.
Regarding “[(3R)-N^2-(Benzyloxycarbonyl)-3-{(tert-butoxycarbonyl)amino}-L-phenylalanyl]-[(3R)-3-hydroxy-L-leucyl]-L-leucyl-D-arginyl-L-isoleucyl-L-allothreonyl-glycyl-L-alanyl-L-serine trifluoroacetate”, under setting [1], the step yield was 67% of theory.
Turning to “[3-tert-Butyl-D-alanyl]-[3-tert-butyl-L-alanyl]-[(3R)-3-amino-L-phenylalanyl]-[(3R)-3-hydroxy-L-leucyl]-L-leucyl-[(2R)-2,4-diaminobutyryl]-L-isoleucyl-L-allothreonyl-glycyl-L-seryl-L-serine C^1.11—N^3.3-lactam”, the step yield (late stage modification step, from compound 453A, trifluoroacetate) was 40% of theory.
Take “[3-tert-Butyl-D-alanyl]-[3-tert-butyl-L-alanyl]-[(3R)-3-amino-L-phenylalanyl]-[(3R)-3-hydroxy-L-leucyl]-L-leucyl-D-arginyl-L-isoleucyl-L-leucyl-glycyl-L-seryl-L-serine C^1.11-N^3.3-lactam”: where the note is “late stage modification step, from compound 452A, trifluoroacetate”, the step yield is 46% of theory.
Turning to “[(3R)-N^2-(Benzyloxycarbonyl)-3-amino-L-phenylalanyl]-L-threonyl-L-leucyl-D-arginyl-L-isoleucyl-L-allothreonyl-glycyl-L-seryl C^1.9-N^3.1-lactam trifluoroacetate”, the cyclisation yield (cyclisation step, from 360A, trifluoroacetate) is recorded as 73% of theory.
On to “[3-tert-Butyl-D-alanyl]-[3-tert-butyl-L-alanyl]-[(3R)-3-amino-L-leucyl]-[(3R)-3-hydroxy-L-leucyl]-L-leucyl-D-arginyl-L-isoleucyl-L-allothreonyl-glycyl-[(3R)-3-hydroxy-L-asparaginyl]-L-serine C^1.11-N^3.3-lactam”, for which the step yield (late stage modification step, from compound 445A, trifluoroacetate) is on record as 53% of theory.
“[(3R)-N^2-(Benzyloxycarbonyl)-3-{(tert-butoxycarbonyl)amino}-L-phenylalanyl]-[(3R)-3-hydroxy-L-leucyl]-L-leucyl-D-arginyl-L-valyl-L-allothreonyl-glycyl-L-seryl-L-serine trifluoroacetate”: under setting [1], the step yield was 42% of theory.
Still for that read-out and setting: then “[(3R)-N^2-(Benzyloxycarbonyl)-3-{(tert-butoxycarbonyl)amino}-L-phenylalanyl]-[(3R)-3-hydroxy-L-leucyl]-L-leucyl-D-arginyl-[3-trimethylsilyl-L-alanlyl]-L-allothreonyl-glycyl-L-seryl-L-serine trifluoroacetate”, with 33% of theory.
Take “[3-tert-Butyl-D-alanyl]-[3-tert-butyl-L-alanyl]-[(3R)-3-amino-L-phenylalanyl]-[(3R)-3-hydroxy-L-leucyl]-L-leucyl-D-arginyl-L-isoleucyl-L-allothreonyl-glycyl-[(3S)-3-hydroxy-L-asparaginyl]-L-alanine C^1.11-N^3.3-lactam bistrifluoroacetate”: the step yield under setting [2] is recorded as 36% of theory.
Turning to “[(3R)-3-Amino-L-phenylalanyl]-[(3R)-3-hydroxy-L-leucyl]-L-leucyl-D-arginyl-L-isoleucyl-L-leucyl-glycyl-L-seryl-L-serine C^1.9-N^3.1-lactam bishydrochloride”, the step yield (late stage modification step, of theory from 401A, trifluoroacetate) is 97% of theory. Moreover, the “purity (crude or final not stated)” value under setting [2] turned out to be 84% pure.
For “[N^2-(tert.-Butoxycarbonyl)-3-tert-butyl-D-alanyl]-[3-tert-butyl-L-alanyl]-[(3R)-3-amino-L-phenylalanyl]-[(3R)-3-hydroxy-L-leucyl]-L-leucyl-D-arginyl-L-isoleucyl-L-allothreonyl-glycyl-[(3S)-3-hydroxy-L-asparaginyl]-L-serine C^1.11-N^3.3-lactam hydrochloride”, for the setting “coupling step, hydrochloride”, the step yield is recorded as 89% of theory.
